Measured values published in PMC7151078, “A Novel NMDA Receptor Antagonist Protects against Cognitive Decline Presented by Senescent Mice” (Pharmaceutics, 2020).

Tests used:
Type in all cases: in vivo, mouse
[1] = test system: SAMR1 and SAMP8 mice; assay: Three-chamber test (TCT); details: 5 mg/Kg oral (drinking water), mean ± SEM
Method: Male SAMR1 and SAMP8 mice (n = 41) with 20-weeks-old were used to carry out cognitive and molecular analysis. The animals were randomly divided into four groups: SAMR1 control (SR1 Ct) group (n = 11), SAMP8 control (SP8 Ct) group (n = 8), SAMR1 treated with RL-208 (SR1 RL-208 (5 mg/Kg)) group (n = 10) and SAMP8 treated with RL-208 (SP8 RL-208 (5 mg/Kg)) group (n = 12). Animals had free access to food and water, under standard temperature conditions (22±2 °C) and 12h:12h light-dark cycles (300 lux/0 lux). RL-208, (3,4,8,9-tetramethyltetracyclo[4.4.0.0^3,9.0^4,8]dec-1-yl)-methylamine hydrochloride, (5 mg/kg/day) was administered through drinking water for four weeks before starting the cognitive test. RL-208 was administered up to euthanasia (Figure 1A). Water consumption was controlled each week for each cage and strain. Afterwards, RL-208 concentration was adjusted accordingly to reach the optimal dose for each cage.
The three-chamber test (TCT) was used to assess preference for social novelty (time spent with a novel intruder in contrast with a familiar one) and sociability (time spent with rodents). The apparatus consisted of a rectangular box with partitions separating the box into three chambers (Figure 1B). Each chamber was 15 × 15 × 20 cm with square openings. Testing occurs in a box with three equally dimensioned rooms. Each test consists of 15 minutes and is recorded with a camera. The animal is placed in the center of the box and allowed to explore the three chambers for 5 minutes. The time spent in each chamber was evaluated. Then, an intruder (same-sex and age) was added to one of the rooms in a metal cup, and behaviour is recorded for 10 minutes. The time spent in each chamber is evaluated as well as the time interacting with the intruder (e.g., sniffing, rears, entries in each chamber).

[2] = test system: SAMR1 and SAMP8 mice; assay: Novel object recognition test (NORT); details: 5 mg/Kg, mean ± SEM
Method: Male SAMR1 and SAMP8 mice (n = 41) with 20-weeks-old were used to carry out cognitive and molecular analysis. The animals were randomly divided into four groups: SAMR1 control (SR1 Ct) group (n = 11), SAMP8 control (SP8 Ct) group (n = 8), SAMR1 treated with RL-208 (SR1 RL-208 (5 mg/Kg)) group (n = 10) and SAMP8 treated with RL-208 (SP8 RL-208 (5 mg/Kg)) group (n = 12). Animals had free access to food and water, under standard temperature conditions (22±2 °C) and 12h:12h light-dark cycles (300 lux/0 lux). RL-208, (3,4,8,9-tetramethyltetracyclo[4.4.0.0^3,9.0^4,8]dec-1-yl)-methylamine hydrochloride, (5 mg/kg/day) was administered through drinking water for four weeks before starting the cognitive test. RL-208 was administered up to euthanasia (Figure 1A). Water consumption was controlled each week for each cage and strain. Afterwards, RL-208 concentration was adjusted accordingly to reach the optimal dose for each cage. The novel object recognition test (NORT) allows evaluating short- and long-term recognition memory involving cortical areas and the hippocampus. The experimental apparatus used for this test was a 90º, two-arm, 25-cm-long, 20-cm-high, and a 5-cm-wide black maze of black polyvinyl chloride (Figure 1D). The walls could be removed for easy cleaning with 70% ethanol to eliminate olfactory cues, and light intensity in mid-field was 30 lux. The objects to be discriminated were made of plastic and chosen not to frighten mice and without any part likely to be bitten. Before performing the test, the mice were individually habituated to the apparatus for 10 min during 3 consecutive days. On day four the next day, the animals were allowed to explore freely a 10 min acquisition trial (First trial), during which they were placed in the maze in the presence of two identical novel objects (A+A’ or B+B’) at the end of each arm. The mouse was then removed from the apparatus and returned to its home cage. A 10 min retention trial (Second trial) was carried out two hours later. […] The time that mice explored the novel object (TN) and time that mice explored the old object (TO) were measured from the video recordings from each trial session Exploration of an object was defined as pointing the nose towards the object at a distance ≤2 cms and/or touching it with the nose. […] To avoid object preference biases objects A and B were counterbalanced so that one-half of the animals in each experimental group were first exposed to object A and then to object B, whereas the other half first saw object B and then object A. To evaluate the cognitive performance, the discrimination index (DI) was calculated, which is defined as (TN-TO)/(TN+TO).

[3] = test system: SAMR1 and SAMP8 mice; assay: Object location test (OLT); details: 5 mg/Kg, mean ± SEM
Method: Male SAMR1 and SAMP8 mice (n = 41) with 20-weeks-old were used to carry out cognitive and molecular analysis. The animals were randomly divided into four groups: SAMR1 control (SR1 Ct) group (n = 11), SAMP8 control (SP8 Ct) group (n = 8), SAMR1 treated with RL-208 (SR1 RL-208 (5 mg/Kg)) group (n = 10) and SAMP8 treated with RL-208 (SP8 RL-208 (5 mg/Kg)) group (n = 12). Animals had free access to food and water, under standard temperature conditions (22±2 °C) and 12h:12h light-dark cycles (300 lux/0 lux). RL-208, (3,4,8,9-tetramethyltetracyclo[4.4.0.0^3,9.0^4,8]dec-1-yl)-methylamine hydrochloride, (5 mg/kg/day) was administered through drinking water for four weeks before starting the cognitive test. RL-208 was administered up to euthanasia (Figure 1A). Water consumption was controlled each week for each cage and strain. Afterwards, RL-208 concentration was adjusted accordingly to reach the optimal dose for each cage. The object location test (OLT) is a well-established task based on the spontaneous tendency of rodents to spend more time exploring a novel object location than a familiar object location, as well as to recognize when an object has been relocated. The test was carried out for 3 days in a wooden box (50 × 50 × 25 cm), in which three walls were white except one that was black (Figure 1C). The first day, the box was empty, and the animals just habituated to the open field arena for 10 minutes. The second day, two objects were placed in front of the black wall, equidistant from each other and the wall. The objects were 10-cm high and identical. The animals were placed into the open field arena and allowed to explore both objects and surroundings for 10 minutes. Afterwards, animals were returned to their home cages, and the OLT apparatus was cleaned with 70% ethanol. On the third day, one object was moved in front of the white wall to test the spatial memory. Trials were recorded using a camera mounted above the open field area, and the total exploration time was determined by scoring the amount of time (seconds) spent sniffing the object in the new location (TN) and the object in the old location (TO). In order to evaluate the cognitive performance, the DI was calculated, which is defined as (TN-TO)/(TN+TO).

CC12CC3CC1(C)C1(C)CC3(CN)CC21C.Cl [RL-208, (3,4,8,9-tetramethyltetracyclo [4.4.0.0^3,9.0^4,8]dec-1-yl)methylamine hydrochloride]
Time in Chamber: Habituation, Center zone ([1]; SP8 mice): 53.35 ± 6.20 s
Time in Chamber: Habituation, Left zone ([1]; SP8 mice): 97.55 ± 9.68 s
Time in Chamber: Habituation, Right zone ([1]; SP8 mice): 149.10 ± 10.41^$ sec
Time in Chamber: Habituation, Center zone ([1]; SR1 mice): 104.71 ± 17.62 s
Time in Chamber: Habituation, Left zone ([1]; SR1 mice): 108.57 ± 23.52 s
Time in Chamber: Habituation, Right zone ([1]; SR1 mice): 86.72 ± 17.61 s
Time spent exploring objects: Familiarization phase, Left object ([2]; SP8 mice): 39.63 ± 4.29 s
Time spent exploring objects: Familiarization phase, Right Object ([2]; SP8 mice): 41.27 ± 3.07 s
Time spent exploring objects: Familiarization phase, Left object ([2]; SR1 mice): 39.88 ± 4.06 s
Time spent exploring objects: Familiarization phase, Right Object ([2]; SR1 mice): 41.08 ± 2.56 s
Time spent exploring objects: Habituation phase, Object A1 ([3]; SP8 mice): 23.13 ± 2.09 s
Time spent exploring objects: Habituation phase, Object A2 ([3]; SP8 mice): 26.47 ± 2.87 s
Time spent exploring objects: Habituation phase, Object A1 ([3]; SR1 mice): 21.96 ± 1.96 s
Time spent exploring objects: Habituation phase, Object A2 ([3]; SR1 mice): 25.78 ± 3.06 s
